{
  "source": "ChEMBL document CHEMBL3860041",
  "about": "“Synthesis, biological evaluation and molecular modeling study of some new methoxylated 2-benzylthio-quinazoline-4(3H)-ones as nonclassical antifolates” (Bioorg Med Chem Lett, 2016)",
  "type_in_all_cases": "functional",
  "key": {"Staphylococcus aureus": {"system": "Staphylococcus aureus", "test": "Antimicrobial activity against Staphylococcus aureus IFO 3060 at 200 ug/disc measured after 24 hrs by agar disc-diffusion method"}, "Bacillus subtilis": {"system": "Bacillus subtilis", "test": "Antimicrobial activity against Bacillus subtilis IFO 3007 at 200 ug/disc measured after 24 hrs by agar disc-diffusion method"}, "Pseudomonas aeruginosa": {"system": "Pseudomonas aeruginosa", "test": "Antimicrobial activity against Pseudomonas aeruginosa IFO 3448 at 200 ug/disc measured after 24 hrs by agar disc-diffusion method"}, "Escherichia coli": {"system": "Escherichia coli", "test": "Antimicrobial activity against Escherichia coli IFO 3301 at 200 ug/disc measured after 24 hrs by agar disc-diffusion method"}},
  "data": [
    {"sequence": "GENTAMICIN", "values": [
      {"measurement": "inhibition zone (IZ)", "setting": "Staphylococcus aureus", "value": 26.5, "unit": "mm"},
      {"measurement": "inhibition zone (IZ)", "setting": "Bacillus subtilis", "value": 25, "unit": "mm"},
      {"measurement": "inhibition zone (IZ)", "setting": "Pseudomonas aeruginosa", "value": 19, "unit": "mm"},
      {"measurement": "inhibition zone (IZ)", "setting": "Escherichia coli", "value": 20.8, "unit": "mm"}
    ]}
  ]
}
